The values that follow come from PMC12375561.

Chains of the proteins cited; added tags and fusions are not shown.
UniProt Q16665: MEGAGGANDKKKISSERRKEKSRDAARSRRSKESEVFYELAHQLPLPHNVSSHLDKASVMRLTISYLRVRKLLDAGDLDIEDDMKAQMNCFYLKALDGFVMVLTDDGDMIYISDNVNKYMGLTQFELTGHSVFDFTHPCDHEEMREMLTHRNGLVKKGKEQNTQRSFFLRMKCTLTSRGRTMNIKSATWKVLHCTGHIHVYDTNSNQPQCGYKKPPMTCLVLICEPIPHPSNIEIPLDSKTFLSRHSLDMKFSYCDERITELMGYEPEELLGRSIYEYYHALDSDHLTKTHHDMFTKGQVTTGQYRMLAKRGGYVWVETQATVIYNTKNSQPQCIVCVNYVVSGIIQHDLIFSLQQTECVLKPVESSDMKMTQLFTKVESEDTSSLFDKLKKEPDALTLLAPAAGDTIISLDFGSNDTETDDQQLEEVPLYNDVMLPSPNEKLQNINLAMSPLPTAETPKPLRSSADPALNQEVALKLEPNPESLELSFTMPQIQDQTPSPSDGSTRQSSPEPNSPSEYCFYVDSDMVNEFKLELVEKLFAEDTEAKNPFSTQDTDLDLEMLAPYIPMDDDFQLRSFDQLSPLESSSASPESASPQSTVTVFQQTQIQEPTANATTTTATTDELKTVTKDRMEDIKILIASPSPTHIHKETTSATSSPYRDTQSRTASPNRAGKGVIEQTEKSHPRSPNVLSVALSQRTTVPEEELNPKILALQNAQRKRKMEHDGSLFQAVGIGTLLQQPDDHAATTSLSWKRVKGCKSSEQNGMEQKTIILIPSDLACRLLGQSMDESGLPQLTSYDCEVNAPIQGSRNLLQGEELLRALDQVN

No constants are given. Whether binding was seen depends on the method and setting. Binding seen in cells or lysates may run through a third protein. Some entries that bind do so weakly or less than the wild type. Tags and fused reporters may be left off the sequences shown.

This test deals with HIF-1α (HA-HIF-1α) (UniProt Q16665). The experiment in a line: co-IP; A549 cells transfected with HA-HIF-1α and Flag-ZFP91 plasmids; lysate in immunoprecipitation buffer incubated with agarose beads and specific antibody at 4°C for 12 h; either Flag-ZFP91 or HA-HIF-1α precipitated; Western blot; with and without CuB (CuB attenuated the interaction).

B1: Zinc finger protein 91 (Flag-ZFP91) (protein, UniProt Q96JP5 1-570)
chain: MPGETEEPRPPEQQDQEGGEAAKAAPEEPQQRPPEAVAAAPAGTTSSRVLRGGRDRGRAAAAAAAAAVSRRRKAEYPRRRRSSPSARPPDVPGQQPQAAKSPSPVQGKKSPRLLCIEKVTTDKDPKEEKEEEDDSALPQEVSIAASRPSRGWRSSRTSVSRHRDTENTRSSRSKTGSLQLICKSEPNTDQLDYDVGEEHQSPGGISSEEEEEEEEEMLISEEEIPFKDDPRDETYKPHLERETPKPRRKSGKVKEEKEKKEIKVEVEVEVKEEENEIREDEEPPRKRGRRRKDDKSPRLPKRRKKPPIQYVRCEMEGCGTVLAHPRYLQHHIKYQHLLKKKYVCPHPSCGRLFRLQKQLLRHAKHHTDQRDYICEYCARAFKSSHNLAVHRMIHTGEKPLQCEICGFTCRQKASLNWHMKKHDADSFYQFSCNICGKKFEKKDSVVAHKAKSHPEVLIAEALAANAGALITSTDILGTNPESLTQPSDGQGLPLLPEPLGNSTSGECLLLEAEGMSKSYCSGTERVSLMADGKIFVGSGSSGGTEGLVMNSDILGATTEVLIEDSDSAGP
With B1, the binding result is reported as “binds”.
